Data reported in patent EP1751175B1, “INTERLEUKIN-1 RECEPTOR ANTAGONISTS, COMPOSITIONS, AND METHODS OF TREATMENT” (VALORISATION-RECHERCHE, Société en Commandite, priority 2004, dated 2005).
Where two headings read alike, the source gives them in different places. Not every detail of the peptide structures is certain; ends, links or a residue may be inferred.

Tested on: piglet brain microvascular endothelial cells
Assay: IL-1-induced PGE2 synthesis in brain microvascular endothelial cells (RIA)
Type: cell-based, porcine
Conditions: Figure 26, assay not stated, PGE2 screening assay assumed

SMILES | IC50 (read-out: activity / IC50) | IC50 (read-out: IC50)
CC(C)C[C@@H](NC(=O)[C@@H](CCC(=O)O)NC(=O)[C@H]1CC[C@H]2CC[C@@H](NC(=O)[C@@H](Cc3ccc(O)cc3)NC(=O)[C@H](N)CCCN)C(=O)N21)C(=O)N[C@H](C)C(N)=O [TTI-101.125, (D-orn)y[R-I2aa]ela] | 0.09 nM | –
CC(C)C[C@@H](NC(=O)[C@@H](CCC(=O)O)NC(=O)[C@H]1CC[C@H]2CC[C@@H](NC(=O)[C@@H](Cc3ccc(O)cc3)NC(=O)[C@H](N)CCCNC(=N)N)C(=O)N21)C(N)=O [TTI-101.124, ry[R-I2aa]el] | – | 2400 nM
